Source: the supplement of paper PMC8728848
The other results are listed elsewhere or left out.

Tests used:
Assay in all cases: glycan array binding signal (z-score within array); higher = stronger binding
Details in all cases: glycan notation: IUPAC condensed, linker removed
[1] = biological target: GlcNAc(b1-4)[GlcNAc(b1-6)]GalNAc
How it was run: (§1)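 The binding signal is a Z-score computed within each array and averaged over linkers. Arrays of the same protein sequence at different concentrations or buffers were also averaged together. Data originate from 3228 arrays in the Consortium for Functional Glycomics database, kept only where the protein sequence was available.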

[2] = biological target: GlcNAc(b1-6)Gal(b1-4)GlcNAc
How it was run: as §1

[3] = biological target: GlcNAc(b1-6)GalNAc
How it was run: as §1

[4] = biological target: GlcNAc3Prop(b1-4)GlcNAc
How it was run: as §1

[5] = biological target: Kdn(a2-3)Gal(b1-3)GlcNAc
How it was run: as §1

[6] = biological target: Kdn(a2-3)Gal(b1-4)GlcNAc
How it was run: as §1

[7] = biological target: Man(a1-2)Man(a1-2)Man(a1-3)Man
How it was run: as §1

[8] = biological target: Man(a1-2)Man(a1-2)Man(a1-6)[Man(a1-3)]Man
How it was run: as §1

[9] = biological target: Man(a1-2)Man(a1-3)Man
How it was run: as §1

[10] = biological target: Man(a1-2)Man(a1-3)[Man(a1-2)Man(a1-6)]Man
How it was run: as §1

[11] = biological target: Man(a1-2)Man(a1-3)[Man(a1-2)Man(a1-6)]Man(a1-6)[Man(a1-2)Man(a1-2)Man(a1-3)]Man
How it was run: as §1

[12] = biological target: Man(a1-2)Man(a1-3)[Man(a1-2)Man(a1-6)]Man(a1-6)[Man(a1-2)Man(a1-2)Man(a1-3)]Man(b1-4)GlcNAc(b1-4)GlcNAc
How it was run: as §1

[13] = biological target: Man(a1-2)Man(a1-3)[Man(a1-6)]Man(a1-6)[Man(a1-2)Man(a1-3)]Man(b1-4)GlcNAc(b1-4)GlcNAc
How it was run: as §1

[14] = biological target: Man(a1-2)Man(a1-6)[Man(a1-3)]Man(a1-6)[Man(a1-2)Man(a1-2)Man(a1-3)]Man
How it was run: as §1

[15] = biological target: Man(a1-2)Man(a1-6)[Man(a1-3)]Man(a1-6)[Man(a1-2)Man(a1-2)Man(a1-3)]Man(b1-4)GlcNAc(b1-4)GlcNAc
How it was run: as §1

[16] = biological target: Man(a1-3)[Man(a1-6)]Man
How it was run: as §1

[17] = biological target: Man(a1-3)[Man(a1-6)]Man(a1-6)[Man(a1-2)Man(a1-3)]Man(b1-4)GlcNAc(b1-4)GlcNAc
How it was run: as §1

[18] = biological target: Man(a1-3)[Man(a1-6)]Man(a1-6)[Man(a1-3)]Man
How it was run: as §1

[19] = biological target: Man(a1-3)[Man(a1-6)]Man(a1-6)[Man(a1-3)]Man(b1-4)GlcNAc(b1-4)GlcNAc
How it was run: as §1

[20] = biological target: Man(a1-3)[Man(a1-6)]Man(b1-4)GlcNAc(b1-4)GlcNAc
How it was run: as §1

[21] = biological target: Man(a1-6)Man
How it was run: as §1

[22] = biological target: Man(b1-4)GlcNAc
How it was run: as §1

[23] = biological target: Neu5Ac(a2-3)Gal
How it was run: as §1

[24] = biological target: Neu5Ac(a2-3)Gal(b1-3)GalNAc
How it was run: as §1

[25] = biological target: Neu5Ac(a2-3)Gal(b1-3)GalNAc(b1-3)Gal(a1-4)Gal(b1-4)Glc
How it was run: as §1

[26] = biological target: Neu5Ac(a2-3)Gal(b1-3)GalNAc(b1-3)Gal(b1-4)GlcNAc
How it was run: as §1

[27] = biological target: Neu5Ac(a2-3)Gal(b1-3)GalNAc(b1-4)[Neu5Ac(a2-3)]Gal(b1-4)Glc
How it was run: as §1

[28] = biological target: Neu5Ac(a2-3)Gal(b1-3)GalNAc6S
How it was run: as §1

[29] = biological target: Neu5Ac(a2-3)Gal(b1-3)GlcNAc
How it was run: as §1

[30] = biological target: Neu5Ac(a2-3)Gal(b1-3)GlcNAc(b1-3)Gal(b1-3)GlcNAc
How it was run: as §1

[31] = biological target: Neu5Ac(a2-3)Gal(b1-3)GlcNAc6S
How it was run: as §1

[32] = biological target: Neu5Ac(a2-3)Gal(b1-3)[Fuc(a1-4)]GlcNAc
How it was run: as §1

[33] = biological target: Neu5Ac(a2-3)Gal(b1-3)[Fuc(a1-4)]GlcNAc(b1-3)Gal(b1-4)[Fuc(a1-3)]GlcNAc
How it was run: as §1

[34] = biological target: Neu5Ac(a2-3)Gal(b1-3)[Neu5Ac(a2-3)Gal(b1-4)]GlcNAc
How it was run: as §1

[35] = biological target: Neu5Ac(a2-3)Gal(b1-3)[Neu5Ac(a2-6)]GalNAc
How it was run: as §1

[36] = biological target: Neu5Ac(a2-3)Gal(b1-4)Glc
How it was run: as §1

[37] = biological target: Neu5Ac(a2-3)Gal(b1-4)GlcNAc
How it was run: as §1

[38] = biological target: Neu5Ac(a2-3)Gal(b1-4)GlcNAc(b1-2)Man(a1-3)[GlcNAc(b1-2)Man(b1-4)GlcNAc(b1-2)Man(a1-6)]Man(b1-4)GlcNAc(b1-4)GlcNAc
How it was run: as §1

[39] = biological target: Neu5Ac(a2-3)Gal(b1-4)GlcNAc(b1-2)Man(a1-3)[Neu5Ac(a2-6)Gal(b1-4)GlcNAc(b1-2)Man(a1-6)]Man(b1-4)GlcNAc(b1-4)GlcNAc
How it was run: as §1

[40] = biological target: Neu5Ac(a2-3)Gal(b1-4)GlcNAc(b1-3)Gal(b1-3)GlcNAc
How it was run: as §1

[41] = biological target: Neu5Ac(a2-3)Gal(b1-4)GlcNAc(b1-3)Gal(b1-4)GlcNAc
How it was run: as §1

[42] = biological target: Neu5Ac(a2-3)Gal(b1-4)GlcNAc(b1-3)Gal(b1-4)GlcNAc(b1-3)Gal(b1-4)GlcNAc
How it was run: as §1

[43] = biological target: Neu5Ac(a2-3)Gal(b1-4)GlcNAc(b1-3)Gal(b1-4)[Fuc(a1-3)]GlcNAc
How it was run: as §1

[44] = biological target: Neu5Ac(a2-3)Gal(b1-4)GlcNAc(b1-6)[Gal(b1-3)]GalNAc
How it was run: as §1

[45] = biological target: Neu5Ac(a2-3)Gal(b1-4)GlcNAc(b1-6)[Neu5Ac(a2-3)Gal(b1-3)]GalNAc
How it was run: as §1

B1: SLLPI (Homo sapiens), Q8IXA5 (protein)
chain: MVSALRGAPLIRVHSSPVSSPSVSGPRRLVSCLSSQSSALSQSGGGSTSAAGIEARSRALRRRWCPAGIMLLALVCLLSCLLPSSEAKLYGRCELARVLHDFGLDGYRGYSLADWVCLAYFTSGFNAAALDYEADGSTNNGIFQINSRRWCSNLTPNVPNVCRMYCSDLLNPNLKDTVICAMKITQEPQGLGYWEAWRHHCQGKDLTEWVDGCDF
In the case of B1, the “glycan array binding signal (z-score)” value [1] is reported as -0.212, the “glycan array binding signal (z-score)” value [2] is reported as 0.165 and the “glycan array binding signal (z-score)” value [3] is reported as -0.657. For the same binder, the “glycan array binding signal (z-score)” value [4] was -0.331, the “glycan array binding signal (z-score)” value [5] was -0.117 and the “glycan array binding signal (z-score)” value [6] was 0.651. For the same binder, the “glycan array binding signal (z-score)” value [7] was 3.65, the “glycan array binding signal (z-score)” value [8] was -0.429 and the “glycan array binding signal (z-score)” value [9] was -0.222. For the same binder, the “glycan array binding signal (z-score)” value [10] was -0.206, the “glycan array binding signal (z-score)” value [11] was -0.213 and the “glycan array binding signal (z-score)” value [12] was 0.388. For the same binder, the “glycan array binding signal (z-score)” value [13] was -0.182, the “glycan array binding signal (z-score)” value [14] was -0.461 and the “glycan array binding signal (z-score)” value [15] was -0.312. The “glycan array binding signal (z-score)” value [16] was -0.59, the “glycan array binding signal (z-score)” value [17] was 1.02 and the “glycan array binding signal (z-score)” value [18] was -0.191. For the same binder, the “glycan array binding signal (z-score)” value [19] was -0.496, the “glycan array binding signal (z-score)” value [20] was -0.451 and the “glycan array binding signal (z-score)” value [21] was -0.129. For the same binder, the “glycan array binding signal (z-score)” value [22] was -0.566, the “glycan array binding signal (z-score)” value [23] was -0.08 and the “glycan array binding signal (z-score)” value [24] was -0.268. The “glycan array binding signal (z-score)” value [25] was -0.643, the “glycan array binding signal (z-score)” value [26] was 0.146 and the “glycan array binding signal (z-score)” value [27] was -0.039. The “glycan array binding signal (z-score)” value [28] was 0.202, the “glycan array binding signal (z-score)” value [29] was -0.213 and the “glycan array binding signal (z-score)” value [30] was -0.285. The “glycan array binding signal (z-score)” value [31] was 0.676, the “glycan array binding signal (z-score)” value [32] was -0.532 and the “glycan array binding signal (z-score)” value [33] was 0.179. The “glycan array binding signal (z-score)” value [34] was 0.189, the “glycan array binding signal (z-score)” value [35] was -0.223 and the “glycan array binding signal (z-score)” value [36] was 0.111. The “glycan array binding signal (z-score)” value [37] was 0, the “glycan array binding signal (z-score)” value [38] was 4.44 and the “glycan array binding signal (z-score)” value [39] was -0.461. The “glycan array binding signal (z-score)” value [40] was -0.278, the “glycan array binding signal (z-score)” value [41] was -0.432 and the “glycan array binding signal (z-score)” value [42] was 0.799. For the same binder, the “glycan array binding signal (z-score)” value [43] was 1.29, the “glycan array binding signal (z-score)” value [44] was -0.63 and the “glycan array binding signal (z-score)” value [45] was 0.169.
